Test [1] concerns the target endogenous Miro1 in WT mouse embryonic fibroblasts (MEFs) (mouse) (UniProt Q8BG51). Description: proximity ligation assay in WT MEFs.
Test [2] addresses T1, Myc-MFN2 WT (UniProt Q80U63).
T1 sequence (looked up): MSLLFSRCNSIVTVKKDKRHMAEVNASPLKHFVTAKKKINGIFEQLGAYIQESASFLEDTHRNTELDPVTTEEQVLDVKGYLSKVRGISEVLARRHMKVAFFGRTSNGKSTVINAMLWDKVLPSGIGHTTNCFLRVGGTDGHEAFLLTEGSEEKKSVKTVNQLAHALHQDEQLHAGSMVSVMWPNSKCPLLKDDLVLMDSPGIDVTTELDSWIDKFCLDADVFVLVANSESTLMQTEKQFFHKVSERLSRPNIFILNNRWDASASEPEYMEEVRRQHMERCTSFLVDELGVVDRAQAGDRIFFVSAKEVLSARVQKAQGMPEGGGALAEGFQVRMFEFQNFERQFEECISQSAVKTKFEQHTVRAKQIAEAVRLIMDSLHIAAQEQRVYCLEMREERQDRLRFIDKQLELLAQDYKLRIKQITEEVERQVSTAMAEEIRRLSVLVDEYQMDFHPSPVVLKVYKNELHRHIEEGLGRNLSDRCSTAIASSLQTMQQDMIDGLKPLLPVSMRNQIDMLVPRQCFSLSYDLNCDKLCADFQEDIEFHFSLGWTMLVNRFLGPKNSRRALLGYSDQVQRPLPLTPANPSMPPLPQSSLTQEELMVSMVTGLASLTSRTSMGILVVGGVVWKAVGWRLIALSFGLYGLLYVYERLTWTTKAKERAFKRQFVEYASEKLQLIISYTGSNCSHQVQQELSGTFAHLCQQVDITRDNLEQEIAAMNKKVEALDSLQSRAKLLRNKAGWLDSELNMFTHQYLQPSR
Put plainly: co-immunoprecipitation, cells overexpressing Myc-MFN2 alone.

Protein sequences, listed by entry. Tags and fused reporters are not part of them.
UniProt Q8BG51: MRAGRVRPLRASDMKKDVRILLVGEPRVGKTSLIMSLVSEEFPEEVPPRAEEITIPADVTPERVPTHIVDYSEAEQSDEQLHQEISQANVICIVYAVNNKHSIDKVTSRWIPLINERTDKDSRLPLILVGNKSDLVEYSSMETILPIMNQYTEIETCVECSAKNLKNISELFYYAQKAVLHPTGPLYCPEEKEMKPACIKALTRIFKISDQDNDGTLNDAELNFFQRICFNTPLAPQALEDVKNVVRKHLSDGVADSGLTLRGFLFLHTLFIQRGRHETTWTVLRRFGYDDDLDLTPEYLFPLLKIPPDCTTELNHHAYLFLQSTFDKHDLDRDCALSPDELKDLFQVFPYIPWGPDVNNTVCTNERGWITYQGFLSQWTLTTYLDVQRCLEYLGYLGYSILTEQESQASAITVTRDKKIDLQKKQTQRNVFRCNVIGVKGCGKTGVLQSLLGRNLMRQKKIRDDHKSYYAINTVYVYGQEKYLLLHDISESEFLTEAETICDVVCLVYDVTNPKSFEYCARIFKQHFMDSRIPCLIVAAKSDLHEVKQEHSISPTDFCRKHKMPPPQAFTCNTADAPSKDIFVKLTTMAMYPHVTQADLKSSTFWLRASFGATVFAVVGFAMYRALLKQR
UniProt Q8K341: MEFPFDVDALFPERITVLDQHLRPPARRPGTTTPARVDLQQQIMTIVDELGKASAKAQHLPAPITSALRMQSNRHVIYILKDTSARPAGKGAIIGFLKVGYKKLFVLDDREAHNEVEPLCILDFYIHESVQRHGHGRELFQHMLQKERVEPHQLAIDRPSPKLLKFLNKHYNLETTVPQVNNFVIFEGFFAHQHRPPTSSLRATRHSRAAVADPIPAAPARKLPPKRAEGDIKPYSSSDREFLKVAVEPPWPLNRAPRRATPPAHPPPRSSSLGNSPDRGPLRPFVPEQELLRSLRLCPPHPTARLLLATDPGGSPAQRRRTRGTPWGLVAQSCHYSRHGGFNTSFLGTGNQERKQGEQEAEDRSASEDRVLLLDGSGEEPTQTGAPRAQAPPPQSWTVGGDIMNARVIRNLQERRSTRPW
UniProt Q5SQI0: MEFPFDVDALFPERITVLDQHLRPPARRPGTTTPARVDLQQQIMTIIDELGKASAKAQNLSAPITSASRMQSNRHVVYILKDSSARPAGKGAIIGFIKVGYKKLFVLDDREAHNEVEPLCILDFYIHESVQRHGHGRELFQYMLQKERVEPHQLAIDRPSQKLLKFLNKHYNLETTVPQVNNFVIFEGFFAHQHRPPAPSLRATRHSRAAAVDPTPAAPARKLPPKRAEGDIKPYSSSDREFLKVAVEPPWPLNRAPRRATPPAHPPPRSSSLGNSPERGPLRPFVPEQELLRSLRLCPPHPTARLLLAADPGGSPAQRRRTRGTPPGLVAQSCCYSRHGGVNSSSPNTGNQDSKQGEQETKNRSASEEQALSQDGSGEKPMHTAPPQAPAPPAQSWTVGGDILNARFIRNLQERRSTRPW

Test [3] addresses T1, Myc-MFN2 WT. Description: immunoprecipitation and immunoblot in HEK293T cells, FIG. 7K lower panel. (Immunoblotting shows a protein as a band on a membrane.)

These are yes or no findings as the source states them, for the method shown. For part of these data: In cells and extracts the contact can be indirect. Some binding calls cover weakened binding; strength is not graded here. For part of these data: Tags and fused reporters may be left off the sequences shown.

Turning to “endogenous ATAT1 in WT mouse embryonic fibroblasts (MEFs) (from UniProt Q8K341 1-421) (enzyme)”, the binding entry in test [1] is given as “binds”.
Regarding “endogenous ATAT1 in HEK293T cells (from UniProt Q5SQI0 1-421) (enzyme)”, the binding result in test [2] and in test [3] was “binds” throughout.

The record behind these values is patent US20260183429A1, “COMPOSITIONS FOR MODULATING ACETYLATED TUBULIN LEVELS AND METHODS THEREOF” (THE TRUSTEES OF COLUMBIA UNIVERSITY IN THE CITY OF NEW YORK, priority 2023, published 2026).
